Measurements as given in article PMC12240075.
Changes are numbered by the printed parent chain. Results are given in words; binding and its absence hold for the method and conditions named. In cells and extracts the contact can be indirect. Some results given as binding are weak or reduced against the parent protein; the word gives no strength. Sequences can lack the tags named with a protein.

Amino acid sequences for entries named in this document (tags omitted).
UniProt P11142: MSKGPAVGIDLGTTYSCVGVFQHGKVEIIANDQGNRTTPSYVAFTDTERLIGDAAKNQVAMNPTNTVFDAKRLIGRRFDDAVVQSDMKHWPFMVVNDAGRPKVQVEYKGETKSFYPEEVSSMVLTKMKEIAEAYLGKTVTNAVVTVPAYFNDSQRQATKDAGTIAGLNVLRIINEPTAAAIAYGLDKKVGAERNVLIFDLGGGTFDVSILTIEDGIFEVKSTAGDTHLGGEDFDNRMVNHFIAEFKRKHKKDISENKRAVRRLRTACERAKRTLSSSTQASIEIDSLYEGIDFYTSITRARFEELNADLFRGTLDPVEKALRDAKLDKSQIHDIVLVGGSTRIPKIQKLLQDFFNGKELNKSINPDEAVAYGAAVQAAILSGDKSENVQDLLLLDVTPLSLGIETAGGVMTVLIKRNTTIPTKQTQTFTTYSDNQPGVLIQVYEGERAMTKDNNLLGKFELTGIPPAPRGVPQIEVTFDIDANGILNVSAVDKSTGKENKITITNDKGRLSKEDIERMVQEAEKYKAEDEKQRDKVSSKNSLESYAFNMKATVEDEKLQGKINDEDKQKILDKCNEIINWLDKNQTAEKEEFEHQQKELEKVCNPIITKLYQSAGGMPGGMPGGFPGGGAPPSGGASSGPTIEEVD

Key:
Assay in all cases: co-IP; tagged bait overproduced in transfected HEK293T cells, partner endogenous; lysis buffer 200 mM NaCl, 1 mM EDTA, 20 mM Tris (pH 7.5), 0.5% NP-40; for Lamp2a (Fig. 3I, 6I) cells treated with 10 μM CQ for 3 h
HA-OGA-Q356A/E360A = target: T1, HA-OGA-Q356A/E360A (UniProt O60502)
T1 sequence: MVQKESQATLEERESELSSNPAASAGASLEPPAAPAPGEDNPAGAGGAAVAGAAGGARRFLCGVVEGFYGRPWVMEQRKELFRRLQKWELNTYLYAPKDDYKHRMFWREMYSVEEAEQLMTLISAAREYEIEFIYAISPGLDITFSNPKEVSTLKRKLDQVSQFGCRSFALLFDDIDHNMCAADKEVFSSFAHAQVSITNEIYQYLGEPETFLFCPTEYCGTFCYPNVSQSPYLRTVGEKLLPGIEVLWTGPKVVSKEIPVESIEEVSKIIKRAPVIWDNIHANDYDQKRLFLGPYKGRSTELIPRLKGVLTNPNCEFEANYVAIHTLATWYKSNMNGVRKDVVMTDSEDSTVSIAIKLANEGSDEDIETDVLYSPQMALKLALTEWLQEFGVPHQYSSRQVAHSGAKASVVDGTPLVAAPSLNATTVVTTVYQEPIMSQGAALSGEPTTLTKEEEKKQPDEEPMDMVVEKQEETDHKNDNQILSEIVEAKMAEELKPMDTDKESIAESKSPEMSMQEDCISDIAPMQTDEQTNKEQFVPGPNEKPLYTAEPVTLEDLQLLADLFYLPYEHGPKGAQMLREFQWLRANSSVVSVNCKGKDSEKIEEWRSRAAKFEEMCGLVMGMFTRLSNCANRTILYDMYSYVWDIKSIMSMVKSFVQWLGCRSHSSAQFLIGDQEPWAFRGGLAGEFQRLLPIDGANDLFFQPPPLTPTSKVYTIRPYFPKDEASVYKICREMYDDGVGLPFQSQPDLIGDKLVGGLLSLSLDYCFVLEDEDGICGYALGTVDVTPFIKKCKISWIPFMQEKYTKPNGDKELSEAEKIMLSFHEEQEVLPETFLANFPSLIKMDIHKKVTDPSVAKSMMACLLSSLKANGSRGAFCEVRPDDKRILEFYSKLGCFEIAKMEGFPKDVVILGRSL

HA-OGA-K358R = target: T2, HA-OGA-K358R (UniProt O60502)
T2 sequence: T1 sequence with A356Q, K358R, A360E

HA-OGA-WT = target: T3, HA-OGA-WT (UniProt O60502)
T3 sequence: T1 sequence with A356Q, A360E

Measured: binding

heat shock cognate protein 70 (endogenous) (from UniProt P11142 1-646)
binds: all assays above
